The list does not hold the whole screen: it gathers tests that were run many times, whatever their T/C, doses with no T/C, and many T/C values between a quarter and a half above the control. Other doses and runs of a compound stand elsewhere. T/C is the treated group as % of the vehicle group. Some doses have a count of surviving animals in place of a T/C: the source holds a T/C of zero for them, seemingly a mark for toxic or unscored doses. Some doses without a T/C left all or most animals alive at the check, yet need not have been tolerated: the source hardly ever lists a survival T/C far under the control, and the zero likely stands for such cases as well. Survivors were counted at the toxicity check, usually on the fifth day, unless a day is given; later deaths do not show. Schedules are NCI's codes, read here as Q, the interval in days (D) or hours (H), X, the number of doses. Some entries were tested several times; their values stand side by side, smallest first. For survival time, the PubChem record calls one and a half times the control and up active, and a quarter to a half above the control has no call in these data; cut-offs in other NCI protocols can differ. Counts like (3×) stand for listed records that agree. Some T/C values are followed by the survivors on the day toxicity was checked, most often the fifth; where none is given, no animal had died by that day.
System: P388 leukemia ip, CD2F1 mice, survival T/C
Test: NCI In Vivo Anticancer Drug Screen. Data for tumor model P388 Leukemia (intraperitoneal) in CD2F1 (CDF1) mice
Conditions: T/C endpoint: median survival time, higher T/C = longer survival
[1] = dose: 200.0 mg/kg/injection, schedule: Q01DX005 (ip), vehicle: saline
[2] = dose: 120.0 mg/kg/injection, schedule: Q01DX005 (ip), vehicle: saline with Tween-80
[3] = dose: 6.25 mg/kg/injection, schedule: Q01DX009 (ip), vehicle: saline
[4] = dose: 12.5 mg/kg/injection, schedule: Q01DX009 (ip), vehicle: saline
[5] = dose: 200.0 mg/kg/injection, schedule: Q01DX009 (ip), vehicle: saline with Tween-80
[6] = dose: 200.0 mg/kg/injection, schedule: Q01DX005 (ip), vehicle: saline with Tween-80
[7] = dose: 100.0 mg/kg/injection, schedule: Q01DX009 (ip), vehicle: saline with Tween-80
[8] = dose: 50.0 mg/kg/injection, schedule: Q01DX009 (ip), vehicle: saline with Tween-80
[9] = dose: 100.0 mg/kg/injection, schedule: Q01DX001 (ip), vehicle: saline with Tween-80
[10] = dose: 200.0 mg/kg/injection, schedule: Q01DX009 (ip), vehicle: Klucel (hydroxypropylcellulose) (HPC)

## CC(NNC(=S)N1CCN(c2ccccn2)CC1)c1nccc2ccccc12 (stereo not given)
dose: 400.0 mg/kg/injection, schedule: Q04DX002 (ip), vehicle: Klucel (hydroxypropylcellulose) (HPC)
  survivor count: 0 of 6

## CCN(CC)CCCC(C)Nc1c(C)cnc2cc(Cl)ccc12 (stereo not given)
[1]
  survivor count: 0 of 5

## O=C(O)c1cccnc1C(=O)O
dose: 400.0 mg/kg/injection, schedule: Q01DX009 (ip), vehicle: saline
  survivor count: 3 of 6
dose: 600.0 mg/kg/injection, schedule: Q01DX009 (ip), vehicle: saline
  survivor count: 3 of 6 and 5 of 6

## CC1(C)OC2CC(=O)OCC23C1CC(=O)C1(C)C3CCC2(C)C(c3ccoc3)OC(=O)C3OC321 (stereo not given)
dose: 400.0 mg/kg/injection, schedule: Q01DX010 (ip), vehicle: saline
  survivor count: 6 of 6

## COc1ccc2c(c1)CCC(c1ccccc1)=C2c1ccc(OCCN2CCCC2)cc1
dose: 96.0 mg/kg/injection, schedule: Q01DX005 (ip), vehicle: Klucel (hydroxypropylcellulose) (HPC)
  survivor count: 6 of 6

## O=C(O)c1ccc(OCc2ccccc2)cc1
dose: 200.0 mg/kg/injection, schedule: Q01DX009 (ip), vehicle: saline
  survivor count: 6 of 6

## c1ccc(C(Nc2nncs2)Nc2nncs2)cc1
[2]
  T/C: 131 % of control

## COc1c(C)cc(C)c(CCl)c1-c1c(CCl)c(C)cc(C)c1OC
dose: 400.0 mg/kg/injection, schedule: Q01DX001 (ip), vehicle: Klucel (hydroxypropylcellulose) (HPC)
  survivor count: 5 of 6

## CS(=O)(=O)c1nsc(N)n1
[3]
  T/C: 96, 100, 101 % of control
  survivor count: 5 of 6
[4]
  T/C: 103 % of control (2×)
  survivor count: 5 of 6 and 6 of 6
dose: 25.0 mg/kg/injection, schedule: Q01DX009 (ip), vehicle: saline
  T/C: 88, 97, 104, 105 % of control
dose: 50.0 mg/kg/injection, schedule: Q01DX009 (ip), vehicle: saline
  T/C: 93, 96, 97, 100 % of control

## C=CC1CN2CCC1CC2C(O)c1ccnc2ccc(OC)cc12 (stereo not given) (tested in a mixture with another compound)
[5]
  survivor count: 2 of 6

## OC(C[n+]1ccccc1)c1ccc2c(c1)OCO2 (stereo not given)
[6]
  survivor count: 2 of 5

## O=C(O)c1ccc(COc2ccc([N+](=O)[O-])cc2Cl)cc1
dose: 400.0 mg/kg/injection, schedule: Q04DX003 (ip), vehicle: saline
  survivor count: 2 of 6

## O=C(Nc1ccc([N+](=O)[O-])cc1)N1CCOCC1
[7]
  survivor count: 6 of 6

## CN(C(=O)OCc1ccccc1)c1ccc(C(=O)NC(CCC(=O)OCc2ccccc2)C(=O)OCc2ccccc2)cc1 (stereo not given)
[8]
  survivor count: 6 of 6
[7]
  survivor count: 6 of 6

## CN1COc2c(n(C)c(=O)[nH]c2=O)C1
[1]
  T/C: 126 % of control (2×)

## CC1(C)N=C(N)N=C(N)N1c1cccc(CCCCc2cccc(S(=O)(=O)F)c2)c1
dose: 6.0 mg/kg/injection, schedule: Q04DX003 (ip), vehicle: saline with Tween-80
  T/C: 127 % of control
dose: 9.0 mg/kg/injection, schedule: Q04DX003 (ip), vehicle: saline with Tween-80
  T/C: 131 % of control
dose: 12.5 mg/kg/injection, schedule: Q04DX003 (ip), vehicle: saline with Tween-80
  T/C: 136 % of control

## CC(C)(C)N(O)N=O.CC(C)(C)N(O)N=O.[Cu]
dose: 12.5 mg/kg/injection, schedule: Q01DX001 (ip), vehicle: saline with Tween-80
  survivor count: 3 of 6
dose: 25.0 mg/kg/injection, schedule: Q01DX001 (ip), vehicle: saline with Tween-80
  survivor count: 2 of 6
[9]
  survivor count: 0 of 6
dose: 200.0 mg/kg/injection, schedule: Q01DX001 (ip), vehicle: saline with Tween-80
  survivor count: 0 of 6
dose: 400.0 mg/kg/injection, schedule: Q01DX001 (ip), vehicle: saline with Tween-80
  survivor count: 0 of 6

## O=C(/C(=C(/[O-])C(F)(F)F)[n+]1ccc2ccccc2c1)C(F)(F)F
[9]
  survivor count: 6 of 6

## CCCCCC1(c2ccccc2)CCCC(C#N)C1=O (stereo not given)
dose: 400.0 mg/kg/injection, schedule: Q04DX003 (ip), vehicle: saline with Tween-80
  survivor count: 1 of 6

## CC(C)CC(NC(=O)OCC[P+](c1ccccc1)(c1ccccc1)c1ccccc1)C(=O)O (stereo not given)
dose: 8.25 mg/kg/injection, schedule: Q01DX009 (ip), vehicle: saline with Tween-80
  T/C: 134 % of control
dose: 12.5 mg/kg/injection, schedule: Q01DX009 (ip), vehicle: saline with Tween-80
  T/C: 130 % of control (2×)
dose: 18.75 mg/kg/injection, schedule: Q01DX009 (ip), vehicle: saline with Tween-80
  survivor count: 5 of 6
dose: 25.0 mg/kg/injection, schedule: Q01DX009 (ip), vehicle: saline with Tween-80
  survivor count: 5 of 6
[8]
  survivor count: 1 of 6
[7]
  survivor count: 0 of 6
[5]
  survivor count: 0 of 6

## CSC(=S)S(=O)(=O)C12CC3CC(CC(C3)C1)C2
dose: 25.0 mg/kg/injection, schedule: Q01DX009 (ip), vehicle: Klucel (hydroxypropylcellulose) (HPC)
  T/C: 131 % of control
dose: 50.0 mg/kg/injection, schedule: Q01DX009 (ip), vehicle: Klucel (hydroxypropylcellulose) (HPC)
  T/C: 100, 117, 122, 144 % of control [5 of 6 alive]
dose: 100.0 mg/kg/injection, schedule: Q01DX009 (ip), vehicle: Klucel (hydroxypropylcellulose) (HPC)
  survivor count: 0 of 6
[10]
  survivor count: 0 of 6

## CCCCCCCCCCCC1=C(O)C(=O)C(Br)=C(O)C1=O
[6]
  survivor count: 0 of 6

## CCC[As](CCC)SCC1OC(OC(C)=O)C(OC(C)=O)C(OC(C)=O)C1OC(C)=O (stereo not given)
[5]
  survivor count: 6 of 6

## CN(C)C1=NC(NC2CCCCC2)(N(C)C)OC(N(C)C)=N1 (stereo not given)
dose: 200.0 mg/kg/injection, schedule: Q01DX005 (ip), vehicle: Klucel (hydroxypropylcellulose) (HPC)
  survivor count: 0 of 6

## COc1nc(OC)c2cnn(-c3ccc(Cl)cc3)c2n1
dose: 60.0 mg/kg/injection, schedule: Q01DX005 (ip), vehicle: Klucel (hydroxypropylcellulose) (HPC)
  survivor count: 6 of 6
dose: 120.0 mg/kg/injection, schedule: Q01DX005 (ip), vehicle: Klucel (hydroxypropylcellulose) (HPC)
  survivor count: 6 of 6

## CC12CCC3C(CCC4CC(OC(=O)Cc5ccc(N(CCCl)CCCl)cc5)CCC43C)C1CCC(=O)N2 (stereo not given)
dose: 3.0 mg/kg/injection, schedule: Q01DX009 (ip), vehicle: saline with Tween-80
  T/C: 130 and 134 % of control

## Cc1cc(O)c(N=Nc2ccc(C(=O)O)cc2)cc1C
dose: 200.0 mg/kg/injection, schedule: Q04DX003 (ip), vehicle: saline with Tween-80
  survivor count: 6 of 6

## Cc1cc(NC(=O)c2ccc(NC(=O)c3ccc(N)cc3)cc2)ccc1N=Nc1ccc2c(O)c(N=Nc3ccc(S(=O)(=O)O)cc3C)c(S(=O)(=O)O)cc2c1
[6]
  T/C: 126 % of control

## C=CC(=NC(C)(C)C)Nc1ccc(OC)cc1
[5]
  survivor count: 0 of 6

## CN(C)CC(CN(C)C)C(=O)c1ccc(Cl)c(Cl)c1
dose: 100.0 mg/kg/injection, schedule: Q01DX005 (ip), vehicle: saline
  survivor count: 3 of 6
[1]
  survivor count: 0 of 6

## [Cl][Pt+2][Cl].[NH-]c1nc2ccc(Br)cc2s1.[NH-]c1nc2ccc(Br)cc2s1
dose: 400.0 mg/kg/injection, schedule: Q04DX002 (ip), vehicle: saline with Tween-80
  survivor count: 5 of 6

## Cc1cc(C)c2c(c1N)C(=O)CCO2
dose: 60.0 mg/kg/injection, schedule: Q01DX005 (ip), vehicle: saline with Tween-80
  survivor count: 4 of 6
[2]
  survivor count: 2 of 6
dose: 240.0 mg/kg/injection, schedule: Q01DX005 (ip), vehicle: saline with Tween-80
  survivor count: 0 of 6

## CC(Br)C(=O)c1ccc(OCc2ccccc2)cc1 (stereo not given)
dose: 400.0 mg/kg/injection, schedule: Q01DX009 (ip), vehicle: saline with Tween-80
  survivor count: 3 of 6

## OCC1OC(n2cnc3cc(Cl)c(Cl)cc32)C(O)C1O (stereo not given)
dose: 64.0 mg/kg/injection, schedule: Q03HX024 (ip), vehicle: saline with Tween-80
  T/C: 130 % of control (2×)
dose: 128.0 mg/kg/injection, schedule: Q03HX024 (ip), vehicle: saline with Tween-80
  survivor count: 0 of 6 and 3 of 6
dose: 256.0 mg/kg/injection, schedule: Q03HX024 (ip), vehicle: saline with Tween-80
  survivor count: 0 of 6
dose: 512.0 mg/kg/injection, schedule: Q03HX024 (ip), vehicle: saline with Tween-80
  survivor count: 0 of 6
dose: 640.0 mg/kg/injection, schedule: Q04DX003 (ip), vehicle: other
  survivor count: 0 of 10

## NCCCCNC(c1ccccc1)C(O)c1ccccc1 (stereo not given)
[10]
  survivor count: 0 of 6
